# From publication PMC13284713
# Amino acid sequences for entries named in this document (tags omitted).
# UniProt Q92769: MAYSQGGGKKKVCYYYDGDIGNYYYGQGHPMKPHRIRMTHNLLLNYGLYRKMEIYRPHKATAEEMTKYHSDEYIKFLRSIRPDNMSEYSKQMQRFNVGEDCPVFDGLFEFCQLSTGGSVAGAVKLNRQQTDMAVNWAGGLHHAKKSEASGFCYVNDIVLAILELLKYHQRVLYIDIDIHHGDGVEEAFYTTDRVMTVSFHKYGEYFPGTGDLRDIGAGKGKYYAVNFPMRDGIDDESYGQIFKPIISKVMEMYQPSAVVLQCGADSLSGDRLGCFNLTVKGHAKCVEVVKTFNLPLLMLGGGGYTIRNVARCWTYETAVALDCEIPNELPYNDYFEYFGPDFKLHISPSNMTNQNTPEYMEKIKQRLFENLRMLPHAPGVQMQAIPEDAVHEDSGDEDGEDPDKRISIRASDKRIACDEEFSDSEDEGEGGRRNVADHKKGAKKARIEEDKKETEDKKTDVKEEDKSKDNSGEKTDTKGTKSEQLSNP
# UniProt O75151: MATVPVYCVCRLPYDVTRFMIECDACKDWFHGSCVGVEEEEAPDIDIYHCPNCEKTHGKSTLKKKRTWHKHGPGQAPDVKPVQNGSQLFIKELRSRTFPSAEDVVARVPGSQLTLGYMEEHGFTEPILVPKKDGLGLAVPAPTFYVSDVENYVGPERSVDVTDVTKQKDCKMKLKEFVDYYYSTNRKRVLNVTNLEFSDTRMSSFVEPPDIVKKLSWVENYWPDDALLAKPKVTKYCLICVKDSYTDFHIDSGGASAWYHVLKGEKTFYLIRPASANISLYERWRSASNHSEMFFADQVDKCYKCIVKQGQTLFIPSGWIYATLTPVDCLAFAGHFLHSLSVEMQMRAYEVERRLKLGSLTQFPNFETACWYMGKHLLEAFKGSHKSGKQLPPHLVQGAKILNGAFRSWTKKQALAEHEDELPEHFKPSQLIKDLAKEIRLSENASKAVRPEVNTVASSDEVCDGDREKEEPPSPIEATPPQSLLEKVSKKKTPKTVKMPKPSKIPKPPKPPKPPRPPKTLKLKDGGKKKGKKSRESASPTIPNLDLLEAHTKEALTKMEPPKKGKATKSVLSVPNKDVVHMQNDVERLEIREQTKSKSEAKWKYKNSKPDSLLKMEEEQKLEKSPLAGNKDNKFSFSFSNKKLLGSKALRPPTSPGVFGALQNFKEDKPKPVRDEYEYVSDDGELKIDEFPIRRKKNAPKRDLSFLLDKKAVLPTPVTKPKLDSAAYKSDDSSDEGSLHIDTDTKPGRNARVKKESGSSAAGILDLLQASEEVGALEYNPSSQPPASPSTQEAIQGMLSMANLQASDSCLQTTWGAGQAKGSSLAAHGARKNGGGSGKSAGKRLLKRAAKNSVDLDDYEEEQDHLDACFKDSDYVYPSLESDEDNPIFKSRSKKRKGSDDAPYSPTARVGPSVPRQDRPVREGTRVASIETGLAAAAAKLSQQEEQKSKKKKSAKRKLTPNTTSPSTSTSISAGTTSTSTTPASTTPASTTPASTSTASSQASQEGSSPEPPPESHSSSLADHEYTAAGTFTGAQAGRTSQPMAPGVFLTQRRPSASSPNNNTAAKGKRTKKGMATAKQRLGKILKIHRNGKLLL
# UniProt Q13547: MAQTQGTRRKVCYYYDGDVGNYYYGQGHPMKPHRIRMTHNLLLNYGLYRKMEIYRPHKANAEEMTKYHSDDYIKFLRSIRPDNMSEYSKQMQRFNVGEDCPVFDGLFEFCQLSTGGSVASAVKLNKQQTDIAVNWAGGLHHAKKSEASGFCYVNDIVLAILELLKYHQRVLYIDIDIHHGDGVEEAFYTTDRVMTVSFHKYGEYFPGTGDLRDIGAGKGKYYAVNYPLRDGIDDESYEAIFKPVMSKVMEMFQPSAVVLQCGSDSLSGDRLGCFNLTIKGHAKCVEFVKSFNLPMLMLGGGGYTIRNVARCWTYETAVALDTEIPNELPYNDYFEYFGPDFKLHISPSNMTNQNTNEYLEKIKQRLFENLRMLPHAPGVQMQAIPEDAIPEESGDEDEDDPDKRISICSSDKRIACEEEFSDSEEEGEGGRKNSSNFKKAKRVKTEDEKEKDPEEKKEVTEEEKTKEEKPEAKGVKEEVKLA
# These are yes or no findings as the source states them, for the method shown. Binding seen in cells or lysates may run through a third protein. These calls come from enrichment with a bait or labelling near it, and not all partners need be listed. No binding means not detected with the bait. Tags and fused reporters may be left off the sequences shown.
# Biological target: T1, FLAG-AviTag-tagged murine ARID5B (long isoform) (murine) (UniProt Q8BM75)
# T1 sequence (chain, biotin on the AviTag (by BirA)): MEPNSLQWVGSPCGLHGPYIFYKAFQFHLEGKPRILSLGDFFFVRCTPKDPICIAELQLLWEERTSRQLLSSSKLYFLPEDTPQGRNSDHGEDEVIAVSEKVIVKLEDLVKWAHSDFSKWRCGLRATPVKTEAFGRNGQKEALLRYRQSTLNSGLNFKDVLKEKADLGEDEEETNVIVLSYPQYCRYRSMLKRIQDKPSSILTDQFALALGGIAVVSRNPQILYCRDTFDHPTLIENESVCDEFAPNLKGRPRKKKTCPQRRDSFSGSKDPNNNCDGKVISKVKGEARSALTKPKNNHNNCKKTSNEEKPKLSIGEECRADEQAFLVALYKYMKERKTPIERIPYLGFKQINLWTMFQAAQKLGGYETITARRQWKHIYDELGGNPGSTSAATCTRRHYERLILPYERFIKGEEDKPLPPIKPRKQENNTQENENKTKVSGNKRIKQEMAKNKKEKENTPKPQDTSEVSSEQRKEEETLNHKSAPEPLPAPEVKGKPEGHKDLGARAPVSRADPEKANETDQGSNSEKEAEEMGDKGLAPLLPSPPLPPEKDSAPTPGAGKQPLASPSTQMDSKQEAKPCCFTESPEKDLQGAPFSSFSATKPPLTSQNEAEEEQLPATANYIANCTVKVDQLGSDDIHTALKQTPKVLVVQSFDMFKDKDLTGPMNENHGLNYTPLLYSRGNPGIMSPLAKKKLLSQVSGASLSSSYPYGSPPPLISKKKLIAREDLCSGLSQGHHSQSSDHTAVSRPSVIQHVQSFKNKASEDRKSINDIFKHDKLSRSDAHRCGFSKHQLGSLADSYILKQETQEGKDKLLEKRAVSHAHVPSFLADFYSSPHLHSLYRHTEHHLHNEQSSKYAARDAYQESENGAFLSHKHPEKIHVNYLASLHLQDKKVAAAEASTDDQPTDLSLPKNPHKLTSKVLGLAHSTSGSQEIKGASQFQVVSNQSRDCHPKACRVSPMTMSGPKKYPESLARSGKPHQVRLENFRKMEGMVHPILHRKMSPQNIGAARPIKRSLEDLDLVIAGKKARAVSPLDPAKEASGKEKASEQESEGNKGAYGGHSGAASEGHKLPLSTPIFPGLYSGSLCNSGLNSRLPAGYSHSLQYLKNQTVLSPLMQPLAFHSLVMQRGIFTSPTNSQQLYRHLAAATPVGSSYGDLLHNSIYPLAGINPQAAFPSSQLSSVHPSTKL
# Test: affinity purification with mass spectrometry; biotinylated FLAG-AviTag ARID5B captured on streptavidin beads from 5 mg HEK293T nuclear extract; IP350 buffer (20 mM Tris-HCl pH 7.5, 0.3% NP-40, 350 mM NaCl), overnight at 4°C; control: cells expressing BirA only; n = 3
row,binding,Substance
1,binds,HDAC2 (from UniProt Q92769 1-488) (enzyme)
2,no binding,PHF2 (from UniProt O75151 1-1096) (enzyme)
3,binds,HDAC1 (from UniProt Q13547 1-482) (enzyme)
